Data taken from patent US20140030270A1.
These are yes or no findings as the source states them, for the method shown. Binding calls can cover weak binding; strength is not graded here.

Columns and labels:
[1] = target: cynomolgus monkey PCSK9, V5-6xHIS tagged (cynomolgus monkey); assay: Biacore solution equilibrium: 0.1/0.3/1/3 nM cPCSK9 + (1 pM ~ 25 nM) 21B12, free cPCSK9 measured on an immobilised 21B12 surface (the sheet names cPCSK9; the text calls FIG. 5C mPCSK9)
[2] = target: cynomolgus monkey PCSK9, V5-6xHIS tagged (cynomolgus monkey); assay: BIAcore solution equilibrium; free PCSK9 measured on immobilized 21B12 surface

B1: 21B12 IgG4 (21B12, anti-PCSK9 huIgG4) (antibody, V domains shown)
VH: QVQLVQSGAEVKKPGASVKVSCKASGYTLTSYGISWVRQAPGQGLEWMGWVSFYNGNTNYAQKLQGRGTMTTDPSTSTAYMELRSLRSDDTAVYYCARGYGMDVWGQGTTVTVSS
VL: QSALTQPASVSGSPGQSITISCTGTSSDVGGYNSVSWYQQHPGKAPKLMIYEVSNRPSGVSNRFSGSKSGNTASLTISGLQAEDEADYYCNSYTSTSMVFGGGTKLTVLQ
[1]
  binding: binds
[2]
  binding: binds
